According to article PMC11941692:
No constants are given. Whether binding was seen depends on the method and setting. Binding seen in cells or lysates may run through a third protein. Some binding calls cover weakened binding; strength is not graded here.

Target: EGFR, mouse, in cerebral cortex lysate (mouse (endogenous in C57BL/6 cerebral cortex)) (UniProt Q01279)
Assay: co-IP; C57BL/6 mouse cerebral cortex lysates (1 mg/mL protein), ages 3 to 12 months; 2 ug anti-EGFR or anti-DYRK3 with protein G plus/protein A-agarose, overnight at 4 C, then immunoblot

B1: DYRK3, mouse, in cerebral cortex lysate (enzyme, UniProt Q922Y0 1-586)
chain: MGGAARDRGRKDAALPGAGLPPQQRRLGDGVYDTFMMIDETKGPPYSDTFSNPSEAPVSRRLNITTEPLTRGHTQHFVNGSEMKVEQLFQEFGNRRSNTLQSDGISNSEKSSPASQGKSSESLSAVKCNLSSRPSKVLPLTPEQALKQYKHHLTAYEKLEIVSYPEIYFVGPNAKKRQGVIGGPNNGGYDDADGAYIHVPRDHLAYRYEVLKIIGKGSFGQVARVYDHKLRQYVALKMVRNEKRFHRQAAEEIRILEHLKKQDKTGSMNVIHMLESFTFRNHVCMAFELLSIDLYELIKKNKFQGFSVQLVRKFAQSILQSLDALHKNKIIHCDLKPENILLKHHGRSATKVIDFGSSCFEYQKLYTYIQSRFYRAPEIILGCRYSTPIDIWSFGCILAELLTGQPLFPGEDEGDQLACMIELLGMPPQKLLEQSKRAKYFINSKGLPRYCSVSTQTDGRVVLLGGRSRRGKKRGPPGSKDWATALKGCGDYLFIEFLKRCLQWDPSARLTPAQALRHPWISKSTPKPLTMDKVPGKRVVNPTNAFQGLGSKLPPVVGIASKLKANLMSETSGSIPLCSVLPKLIS
- binding: binds
